Results are given in words; binding and its absence hold for the method and conditions named. Binding seen in cells or lysates may run through a third protein. Some entries that bind do so weakly or less than the wild type.
Biological target: T1, carnitine palmitoyl transferase 1a (CPT1a), endogenous in mouse bone marrow-derived macrophages (mouse (endogenous in BMDMs)) (UniProt P97742)
T1 sequence: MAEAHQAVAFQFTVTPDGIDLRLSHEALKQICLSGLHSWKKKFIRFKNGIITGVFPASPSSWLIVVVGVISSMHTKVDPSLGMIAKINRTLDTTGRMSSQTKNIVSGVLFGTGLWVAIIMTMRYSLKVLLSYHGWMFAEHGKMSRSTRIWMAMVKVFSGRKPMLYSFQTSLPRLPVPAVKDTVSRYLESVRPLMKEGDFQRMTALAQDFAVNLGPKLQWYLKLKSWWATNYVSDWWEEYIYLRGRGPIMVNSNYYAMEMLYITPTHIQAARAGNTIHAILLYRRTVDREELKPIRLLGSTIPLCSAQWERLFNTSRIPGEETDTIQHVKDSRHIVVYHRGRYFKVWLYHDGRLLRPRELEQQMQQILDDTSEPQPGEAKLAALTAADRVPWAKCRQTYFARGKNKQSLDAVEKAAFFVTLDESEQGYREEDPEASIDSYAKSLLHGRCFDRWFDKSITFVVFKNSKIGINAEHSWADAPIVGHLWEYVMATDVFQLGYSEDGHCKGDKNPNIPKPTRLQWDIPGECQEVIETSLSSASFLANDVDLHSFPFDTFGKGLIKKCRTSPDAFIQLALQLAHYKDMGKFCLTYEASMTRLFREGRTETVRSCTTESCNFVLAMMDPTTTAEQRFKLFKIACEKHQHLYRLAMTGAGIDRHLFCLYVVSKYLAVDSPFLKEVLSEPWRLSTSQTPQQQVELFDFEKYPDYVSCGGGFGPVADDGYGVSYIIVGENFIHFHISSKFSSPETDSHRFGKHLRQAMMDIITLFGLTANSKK
Experiment: co-IP; lysates of mouse BMDMs (Rosa26 LSL-MLS-Stat3 with or without Ubc ERT2Cre, 4-OHT for 3 days, then 100 ng/mL LPS for 6 h) in IP lysis buffer; anti-CPT1a antibody at 4 °C overnight, protein A/G-agarose; Western blot

B1: ubiquitin-specific peptidase 50 (USP50), endogenous in mouse bone marrow-derived macrophages (enzyme, UniProt Q6P8X6 1-390)
chain: MCFIDMASHRPVPADDFGAYYNLAECADYDSLPESKTQPHFQGVTGLRNLGNTCYMNAILQCLCSVSPLVEYFLSGKYITALKKDCSEVTTAFAYLMTDMWLGDSDCVSPEIFLSAVGSLYPAFLKKTQQDAQEFLIYVLNELHEALKKHCRRRVNEKRTGQSCCRKVPAQETSIITRLFEGQLSYSITCLKCESCTHKNEVFTILSLPIPSDYECSLQDCLQCFFQQDTLTWSNQIYCSFCEIKQEAAVRTTISKVPKIIVFHFKRFDIQGTVKRKLRTDIHYPLTNLDLTPYICPVFRKHPMYNLCAVVNHFGDLDGGHYTAFCKNSVTQAWYSFDDTRVSEIPDTSVQTATAYLLFYSCQPFSIPAQKRKSQDSTPDHCKQAIRKWP
Q: How did the binding turn out when B1 was run?
A: binds

— PMC8692896
